Patent publication US20230321199A1, “USES OF PTHrP ANALOGUE IN REDUCING FRACTURE RISK” (Radius Health, Inc., priority 2015, published 2023)
At least one peptide structure holds a part that was inferred or is arguable (an end, a ring closure or a residue).

What was measured:
[1] = test system: ovariectomized (OVX) osteopenic rats; assay: OVX osteopenic rats: biomechanical testing of L4 vertebra and femur; type: in vivo, Sprague-Dawley rats; settings: for Cantilever Compression, Femoral Neck, Energy / Cantilever Compression, Femoral Neck, Maximum Load / Cantilever Compression, Femoral Neck, Stiffness / Three Point Bending Test of the Femur, AAMI / Three Point Bending Test of the Femur, AP Diameter / Three Point Bending Test of the Femur, Elastic Modulus / Three Point Bending Test of the Femur, Energy / Three Point Bending Test of the Femur, Maximum Load / Three Point Bending Test of the Femur, Stiffness / Three Point Bending Test of the Femur, Toughness / Three Point Bending Test of the Femur, Ult. Strength / Vertebral compression (L4) Elastic Modulus / Vertebral compression (L4) Energy / Vertebral compression (L4) Maximum Load / Vertebral compression (L4) Stiffness / Vertebral compression (L4) Toughness / Vertebral compression (L4) Ult. Strength: mean
[2] = test system: postmenopausal women with osteoporosis; assay: Phase 2 dose-finding trial: 24-week BMD by DXA; type: in vivo, human; settings: 24 weeks
Description: Healthy postmenopausal women between the ages of 55 to 85 (based on a 5-year history of amenorrhea and an elevated serum level of FSH) were enrolled in the study if they met one of the following the following definitions of osteoporosis: • 1) DXA-derived BMD T-score≤−2.5 at the lumbar spine or femoral neck or total hip. • 2) DXA-derived BMD T-score ≤−2.0 with a history of a prior low trauma forearm, humerus, vertebral, sacral, pelvic, hip, femoral, or tibial fracture within the past five years. • 3) DXA-derived BMD T-score ≤−2.0 with an additional osteoporosis risk factor such as age >65 years or strong maternal history of osteoporosis (defined as a fracture related to osteoporosis or osteoporosis itself determined by BMD criteria).
Dual X-ray absorptiometry: DXA scans were obtained at each local site and then sent to a central imaging reader (BioClinica Inc. Newton, PA) where they underwent a quality control review and then analyzed according to each manufacturers guidelines. Scans performed during the treatment period on the same instrument used for the baseline scan were acquired. Each study site performed Instrument Quality Control over time (instrument standardization and phantom calibration) that was reviewed by the central reader.

[3] = 5 μg/kg and 20 μg/kg (one value)

CC[C@H](C)[C@H](NC(=O)[C@H](CO)NC(=O)[C@H](CCCCN)NC(=O)CNC(=O)[C@H](CCCCN)NC(=O)[C@H](CC(=O)O)NC(=O)[C@H](Cc1c[nH]cn1)NC(=O)[C@H](CC(C)C)NC(=O)[C@H](CC(C)C)NC(=O)[C@H](CCC(N)=O)NC(=O)[C@H](Cc1c[nH]cn1)NC(=O)[C@H](CCC(=O)O)NC(=O)[C@H](CO)NC(=O)[C@@H](NC(=O)[C@H](C)N)C(C)C)C(=O)N[C@@H](CCC(N)=O)C(=O)N[C@@H](CC(=O)O)C(=O)N[C@@H](CC(C)C)C(=O)N[C@@H](CCCNC(=N)N)C(=O)N[C@@H](CCCNC(=N)N)C(=O)N[C@@H](CCCNC(=N)N)C(=O)N[C@@H](CCC(=O)O)C(=O)N[C@@H](CC(C)C)C(=O)N[C@@H](CC(C)C)C(=O)N[C@@H](CCC(=O)O)C(=O)N[C@@H](CCCCN)C(=O)N[C@@H](CC(C)C)C(=O)N[C@@H](CC(C)C)C(=O)NC(C)(C)C(=O)N[C@@H](CCCCN)C(=O)N[C@@H](CC(C)C)C(=O)N[C@@H](Cc1c[nH]cn1)C(=O)N[C@H](C(=O)N[C@@H](C)C(N)=O)[C@@H](C)O [abaloparatide, [Glu^22,25, Leu^23,28,31, Aib^29, Lys^26,30]hpTHrP(1-34)NH2]
L4 compression energy absorbed compared to OVX-Veh ([1]; 5 μg/kg SC daily, 6 weeks): 280%
L4 compression maximum load compared to OVX-Veh ([1]; 5 μg/kg SC daily, 6 weeks): 170%
L4 compression ultimate strength compared to OVX-Veh ([1]; 5 μg/kg SC daily, 6 weeks): 170%
femur energy higher compared to Sham control rats ([1]; 5 μg/kg SC daily, 6 weeks): 34%
femur toughness higher compared to Sham control rats ([1]; 5 μg/kg SC daily, 6 weeks): 22%
Cantilever Compression, Femoral Neck, Energy ([1]; 5 μg/kg SC daily, 6 weeks): 46 mJ
Cantilever Compression, Femoral Neck, Maximum Load ([1]; 5 μg/kg SC daily, 6 weeks): 123 N
Cantilever Compression, Femoral Neck, Stiffness ([1]; 5 μg/kg SC daily, 6 weeks): 226 N/mm
Three Point Bending Test of the Femur, AAMI ([1]; 5 μg/kg SC daily, 6 weeks): 6.9 mm4
Three Point Bending Test of the Femur, AP Diameter ([1]; 5 μg/kg SC daily, 6 weeks): 3.2 mm
Three Point Bending Test of the Femur, Elastic Modulus ([1]; 5 μg/kg SC daily, 6 weeks): 7381 MPa
Three Point Bending Test of the Femur, Energy ([1]; 5 μg/kg SC daily, 6 weeks): 78 mJ
Three Point Bending Test of the Femur, Maximum Load ([1]; 5 μg/kg SC daily, 6 weeks): 223 N
Three Point Bending Test of the Femur, Stiffness ([1]; 5 μg/kg SC daily, 6 weeks): 874 N/mm
Three Point Bending Test of the Femur, Toughness ([1]; 5 μg/kg SC daily, 6 weeks): 6.3 MJ/m^3
Three Point Bending Test of the Femur, Ult. Strength ([1]; 5 μg/kg SC daily, 6 weeks): 185 N/mm^2
Vertebral compression (L4) Elastic Modulus ([1]; 5 μg/kg SC daily, 6 weeks): 963 MPa
Vertebral compression (L4) Energy ([1]; 5 μg/kg SC daily, 6 weeks): 62 mJ
Vertebral compression (L4) Maximum Load ([1]; 5 μg/kg SC daily, 6 weeks): 323 N
Vertebral compression (L4) Stiffness ([1]; 5 μg/kg SC daily, 6 weeks): 1872 N/mm
Vertebral compression (L4) Toughness ([1]; 5 μg/kg SC daily, 6 weeks): 1.86 MJ/m^3
Vertebral compression (L4) Ult. Strength ([1]; 5 μg/kg SC daily, 6 weeks): 40 N/mm^2
femur axial area of moment of inertia compared to OVX control rats [1, 3]: 110%
femur axial area of moment of inertia higher compared to Sham control rats [1, 3]: 15%
femur maximum load compared to OVX control rats [1, 3]: 110%
femur maximum load higher compared to Sham control rats [1, 3]: 19%
femur stiffness higher compared to Sham control rats [1, 3]: 13%
femur ultimate strength higher compared to Sham control rats [1, 3]: 7%
L4 compression toughness compared to OVX-Veh ([1]; 5 μg/kg and 20 μg/kg, both groups): 270%
L4 compression energy absorbed compared to OVX-Veh ([1]; 20 μg/kg SC daily, 6 weeks): 290%
L4 compression maximum load compared to OVX-Veh ([1]; 20 μg/kg SC daily, 6 weeks): 180%
L4 compression ultimate strength compared to OVX-Veh ([1]; 20 μg/kg SC daily, 6 weeks): 180%
L4 vertebra toughness versus Sham control rats ([1]; 20 μg/kg SC daily, 6 weeks): 170%
femur energy higher compared to Sham control rats ([1]; 20 μg/kg SC daily, 6 weeks): 37%
femur toughness higher compared to Sham control rats ([1]; 20 μg/kg SC daily, 6 weeks): 29%
Cantilever Compression, Femoral Neck, Energy ([1]; 20 μg/kg SC daily, 6 weeks): 46 mJ
Cantilever Compression, Femoral Neck, Maximum Load ([1]; 20 μg/kg SC daily, 6 weeks): 116 N
Cantilever Compression, Femoral Neck, Stiffness ([1]; 20 μg/kg SC daily, 6 weeks): 198 N/mm
Three Point Bending Test of the Femur, AAMI ([1]; 20 μg/kg SC daily, 6 weeks): 6.9 mm4
Three Point Bending Test of the Femur, AP Diameter ([1]; 20 μg/kg SC daily, 6 weeks): 3.2 mm
Three Point Bending Test of the Femur, Elastic Modulus ([1]; 20 μg/kg SC daily, 6 weeks): 7449 MPa
Three Point Bending Test of the Femur, Energy ([1]; 20 μg/kg SC daily, 6 weeks): 76 mJ
Three Point Bending Test of the Femur, Maximum Load ([1]; 20 μg/kg SC daily, 6 weeks): 224 N
Three Point Bending Test of the Femur, Stiffness ([1]; 20 μg/kg SC daily, 6 weeks): 872 N/mm
Three Point Bending Test of the Femur, Toughness ([1]; 20 μg/kg SC daily, 6 weeks): 6.0 MJ/m^3
Three Point Bending Test of the Femur, Ult. Strength ([1]; 20 μg/kg SC daily, 6 weeks): 184 N/mm^2
Vertebral compression (L4) Elastic Modulus ([1]; 20 μg/kg SC daily, 6 weeks): 941 MPa
Vertebral compression (L4) Energy ([1]; 20 μg/kg SC daily, 6 weeks): 64 mJ
Vertebral compression (L4) Maximum Load ([1]; 20 μg/kg SC daily, 6 weeks): 336 N
Vertebral compression (L4) Stiffness ([1]; 20 μg/kg SC daily, 6 weeks): 1845 N/mm
Vertebral compression (L4) Toughness ([1]; 20 μg/kg SC daily, 6 weeks): 1.85 MJ/m^3
Vertebral compression (L4) Ult. Strength ([1]; 20 μg/kg SC daily, 6 weeks): 41 N/mm^2
femoral neck BMD increase (±SD) ([2]; 20 μg daily SC): 2.7±4.0%
total hip BMD increase (±SD) ([2]; 20 μg daily SC): 1.4±2.6%
femoral neck BMD increase (±SD) ([2]; 40 μg daily SC): 2.2±4.4%
total hip BMD increase (±SD) ([2]; 40 μg daily SC): 2.0±3.7%
femoral neck BMD increase (±SD) ([2]; 80 μg daily SC): 3.1±4.2%
total hip BMD increase (±SD) ([2]; 80 μg daily SC): 2.6±3.5%
